Hit rate of the full screen: of about 340,000 compounds, about 170 (0.05%) were called active. Inconclusive means that the source gave no clear call. Such entries were picked first, then a sample of the others. Calls come from the whole dose curve; as a rule, active = well fitted inhibition curve with a large enough effect in the signal ratio, with a control signal flat (not every such curve was filed as active); inconclusive = small, poorly fitted or top-dose-only effect, or effect the other way, or a change in a side signal; inactive = flat fitted curve, though single readings scatter; the % refers to the signal ratio. Potencies beside an inconclusive call are fits to weak or partial responses and may not hold up.
Experiment: qHTS Assay to Find Inhibitors of Chronic Active B-Cell Receptor Signaling;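 for activity change, negative = inhibition: plate controls were basal doxycycline-induced cells for no effect and cells given 10 µM MG132 for full effect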
Settings: ABC-DLBCL IkBa-CBG/CBR reporter, luminescence ratio (green luciferase fused to IkBa over red control in TMD8 lymphoma cells), 4 h; activity change, negative = inhibition: at 46.1 µM (top of the series) unless noted
In short: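 Compounds up to 46 uM were incubated four hours with TMD8 cells whose green CBG68 luciferase is fused to IkappaBalpha; red CBR luminescence normalised the signal, and concentration-effect curves were fitted to fusion, red and ratio data.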
Potency is the fitted concentration of half-maximal effect.

Structure (SMILES)	activity change, negative = inhibition	Potency
O=C(NCCCN1CCc2ccccc2C1)Nc1ccc(Cl)cc1	inconclusive: 4.14%	–
Cc1cnc(C(=O)Nc2ccc(S(=O)(=O)NCC(C)C)cc2)cn1	–	inconclusive: 5.01 µM [falling, partial curve, poor fit]
CCCCCn1c(N2CCN(Cc3ccccc3)CC2)nc2c1c(=O)[nH]c(=O)n2C	inconclusive: 0.223%	–
O=C(CCCCn1c(=S)[nH]c2ccsc2c1=O)NCc1ccc2c(c1)OCO2	–	inconclusive: 12.6 µM [falling, single point]
COc1ccc(C(=O)NCc2csc(C(C)C)n2)cc1OC1CCN(C(C)=O)CC1	inconclusive: 12.6%	–
COc1cccc(S(=O)(=O)Nc2ccc3c(c2)OCCO3)c1	inactive: -1.5%	–
COc1ccc(-c2nc3sc(CCNC(=O)c4ccccc4C)c(C)n3n2)cc1	inactive: 4.32%	–
COc1ccccc1Nc1nnc(SCC(=O)NC2CC2)s1	–	inconclusive: 10.3 µM [falling, partial curve, poor fit]
COCc1cc(=O)n2[nH]c(C(F)(F)F)nc2n1	inconclusive: 20.1%	–
CCN(CC)CCNCC(O)(c1ccc(Cl)cc1)c1ccc(Cl)cc1	inconclusive: -20.3%	–
Nc1nccc(/C=C/c2ccc(Cl)cc2)n1	inconclusive: -30.3%	–
COc1ccc(NC(=O)COc2cccc3c2CCN(Cc2cccnc2)C3=O)cc1	inconclusive: -13.2%	–
COC(=O)c1sc(NC(=O)c2c(OC)cccc2OC)c(C#N)c1C	inconclusive: 11.3%	–
COc1ccc(NS(=O)(=O)c2cc(NC(=O)C3CC3)ccc2N2CCCCC2)cc1	inactive: 0.406%	–
Cc1ccccc1NS(=O)(=O)c1cccc2nsnc12	inconclusive: 5.09%	–
CC(C)Cc1cc(C(=O)Nc2ccccc2)c2ccccc2n1	inconclusive: -13%	–
O=C(NNc1c2ccccc2nc2ccccc12)c1ccc(O)cc1	–	inconclusive: 0.92 µM [falling, partial curve, poor fit]
CC1CCN(S(=O)(=O)c2cn(CC(=O)N3CCN(c4cccc(C(F)(F)F)c4)CC3)cn2)CC1	inactive: 0.7%	–
COc1ccccc1OCc1ccc(C(=O)N2N=C(C(F)F)CC2(O)C(F)F)o1 (stereo not given)	–	inconclusive: 5.8 µM [falling, full curve, poor fit]
O=C(Cc1ccccc1)Nc1ccccc1C(=O)O	–	inconclusive: 29.1 µM [falling, single point]
Cc1ccccc1N1C(S)=C(C#N)C(=O)NC12CCCCC2	inconclusive: 1.71%	–
CSCC(C)N1CCC(n2nccc2NC(=O)c2ccc3c(c2)OCO3)CC1 (stereo not given)	inconclusive: 0.725%	–
C=CCN1C(=O)CSc2ccc(C(=O)NCCC3=CCCCC3)cc21	–	inconclusive: 4.61 µM [rising, full curve]
CCC(CC)C(=O)Nc1cc(C(=O)NCCc2ccccc2)ccc1Cl	inconclusive: -0.364%	–
CCCCCCCCCC(=O)N/N=C/c1ccc(C)s1	inactive: 2.74%	–

Record cards (already shown). Values in the order: activity change, negative = inhibition	Potency
Cc1ccccc1NS(=O)(=O)c1cccc2nsnc12 in the list: inconclusive: 5.09%	–
CC(C)Cc1cc(C(=O)Nc2ccccc2)c2ccccc2n1 in the list: inconclusive: -13%	–

(cont.)

Structure (SMILES)	activity change, negative = inhibition	Potency
Cc1cccc(NC(=O)C2COc3ccccc3O2)n1 (stereo not given)	inconclusive: 1.66%	–
O=S(=O)(NCCN1CCOCC1)c1ccc(Cl)c(Cl)c1	inactive: 2.7%	–
Cc1ccc(-c2nn(-c3ccccc3)cc2/C=N/NS(=O)(=O)c2ccccc2)cc1	–	inconclusive: 11.2 µM [rising, partial curve, poor fit]
C=C[C@@H]1c2ccccc2N(S(=O)(=O)c2ccc(C)cc2)[C@H](c2ccc(OC(C)=O)cc2)C1(C#N)C#N	inactive: 1.13%	–
COC(=O)c1cccc(NC(=O)CSc2nnc(C)o2)c1	inconclusive: -23.6%	–
COc1ccc(C(CC(=O)O)NC(=O)OC(C)(C)C)cc1 (stereo not given)	inconclusive: 7.86%	–
C=CCc1cccc(/C=N/NC(=O)c2ccc3nc[nH]c3c2)c1O	inactive: -23.7%	–
CC(C)N(C(=O)CSc1nc2ccccc2n1-c1ccccc1)C(C)C	–	inconclusive: 12.6 µM [rising, partial curve, poor fit]
O=C(c1cc(C2CC2)nc2ccccc12)N1N=C(C(F)F)CC1(O)C(F)F (stereo not given)	–	inconclusive: 7.31 µM [rising, partial curve, poor fit]
Cc1ccc(NC(=O)CCn2c(=O)[nH]c3ccsc3c2=O)cc1F	–	inconclusive: 6.31 µM [falling, partial curve, poor fit]
C/C(CC(=O)Nc1ccccn1)=N\NC(=O)C(=O)Nc1cccc(C)c1	–	inconclusive: 22.4 µM [falling, partial curve, poor fit]
O=C(Nc1ccccc1Cl)Nc1cccnc1Cl	–	inconclusive: 7.08 µM [falling, full curve]
C/C(=N\NC(=O)c1sccc1-n1cccc1)c1cccs1	inconclusive: 9.16%	–
Cc1cc(C)n2[nH]c(=O)c(N=Nc3ccccc3)c2n1	inconclusive: -2.3%	–
COc1cccc(-c2cc(C(F)(F)F)nc(-n3cccn3)n2)c1	–	inconclusive: 8.2 µM [falling, partial curve]
Cc1c(Br)c([N+](=O)[O-])nn1CC(=O)c1ccccc1	inactive: 2.89%	–
Cc1ccc(C2N(c3ccc(Cl)c(Cl)c3)C(=O)C3CCCN32)o1 (stereo not given)	inconclusive: 7.91%	–
COc1cccc(CC(=O)n2nc(N)c3cc4ccc(OC)cc4nc32)c1	–	inconclusive: 0.184 µM [rising, full curve]
CSc1nsc(SCC(=O)Nc2ccccc2F)n1	–	inconclusive: 11.2 µM [falling, partial curve]
COc1ccccc1N1CCN(C(=O)c2ccc(Cn3c(=S)[nH]c4cc5c(cc4c3=O)OCO5)cc2)CC1	inactive: 0.107%	–
CCOc1cccc(C(=O)Nc2ccc(NC(=O)c3cc4ccccc4o3)c(OC)c2)c1	inactive: 2.02%	–
COc1ccccc1OCCn1nnc2ccccc21	inconclusive: -1.58%	–
CCOc1ccc(S(=O)(=O)NCc2ccccn2)cc1NC(=O)c1ccccc1	–	inconclusive: 20.6 µM [falling, partial curve]
O=C(CSc1ncn[nH]1)Nc1nnc(-c2ccccc2)s1	inconclusive: 246% [cytotoxic]	–
COc1ccc2c(c1)CCc1cc(C(=O)N3CCN(c4ccc(N5CCOCC5)nn4)CC3)sc1-2	–	inconclusive: 29.1 µM [falling, single point]

Molecules above that contain a thiophene ring, fused or not (6):
Structure (SMILES)	activity change, negative = inhibition	Potency
O=C(CCCCn1c(=S)[nH]c2ccsc2c1=O)NCc1ccc2c(c1)OCO2	–	inconclusive: 12.6 µM [falling, single point]
COC(=O)c1sc(NC(=O)c2c(OC)cccc2OC)c(C#N)c1C	inconclusive: 11.3%	–
CCCCCCCCCC(=O)N/N=C/c1ccc(C)s1	inactive: 2.74%	–
Cc1ccc(NC(=O)CCn2c(=O)[nH]c3ccsc3c2=O)cc1F	–	inconclusive: 6.31 µM [falling, partial curve, poor fit]
C/C(=N\NC(=O)c1sccc1-n1cccc1)c1cccs1	inconclusive: 9.16%	–
COc1ccc2c(c1)CCc1cc(C(=O)N3CCN(c4ccc(N5CCOCC5)nn4)CC3)sc1-2	–	inconclusive: 29.1 µM [falling, single point]

Reference: PubChem BioAssay AID493014 (National Center for Advancing Translational Sciences (NCATS), 2011)
